These results are taken from PMC12229497, “The intracellular bacterium Orientia tsutsugamushi uses the autotransporter ScaC to activate BICD adaptors for dynein-based motility” (Nature Communications, 2025).

Chains of the proteins cited; added tags and fusions are not shown. Lines headed by an entry give the natural chain unless they say otherwise; changes in a name come on top. Residues count along the entry.
UniProt Q921C5: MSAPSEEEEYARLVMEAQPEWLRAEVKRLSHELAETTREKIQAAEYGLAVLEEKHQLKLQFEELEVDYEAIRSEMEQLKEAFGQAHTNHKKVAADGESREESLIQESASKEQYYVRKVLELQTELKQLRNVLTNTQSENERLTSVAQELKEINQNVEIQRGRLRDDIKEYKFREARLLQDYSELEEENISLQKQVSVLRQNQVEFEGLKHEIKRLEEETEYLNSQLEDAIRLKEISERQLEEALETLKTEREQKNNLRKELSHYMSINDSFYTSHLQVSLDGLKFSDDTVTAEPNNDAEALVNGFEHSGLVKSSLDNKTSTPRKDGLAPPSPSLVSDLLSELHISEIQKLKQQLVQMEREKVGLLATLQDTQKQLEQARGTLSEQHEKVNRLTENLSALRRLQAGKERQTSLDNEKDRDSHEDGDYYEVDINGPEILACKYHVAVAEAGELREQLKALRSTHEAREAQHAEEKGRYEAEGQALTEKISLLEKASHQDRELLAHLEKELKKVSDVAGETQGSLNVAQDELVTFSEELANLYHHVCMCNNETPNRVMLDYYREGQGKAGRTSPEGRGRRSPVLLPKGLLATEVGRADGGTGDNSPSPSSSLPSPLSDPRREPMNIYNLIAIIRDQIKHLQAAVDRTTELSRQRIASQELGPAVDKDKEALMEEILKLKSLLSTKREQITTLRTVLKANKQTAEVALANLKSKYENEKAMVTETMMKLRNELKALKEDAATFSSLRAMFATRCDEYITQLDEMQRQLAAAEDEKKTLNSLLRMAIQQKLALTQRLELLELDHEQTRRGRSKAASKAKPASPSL
BICD2^1–710: residues 1-710 of Q921C5
BICD2^1–400: residues 1-400 of Q921C5

Common to all, as to assay: SEC; reconstitution: BICD2 and ScaC constructs mixed in a 1:2 molar ratio, 15 min on ice, Superose 6 Increase 3.2/300 in GF150 buffer; fractions on SDS-PAGE; both purified
For orientation: Size exclusion chromatography separates by hydrodynamic size, large species first.

Experiment [1] concerns the target BICD2, full-length mouse (mouse) (UniProt Q921C5).
Experiment [2] deals with BICD2^1–400 (mouse) (UniProt Q921C5).
For experiment [3], the target named is BICD2^1–710 (mouse) (UniProt Q921C5).

These are yes or no findings as the source states them, for the method shown. For part of these data: Tags and fused reporters may be left off the sequences shown.

Regarding “ScaE passenger domain (residues 49–494) (from UniProt A0A0F3MB98 49-494) (domain or fragment)”, the binding entry in experiment [1] is given as “no binding”.

B1: ScaC passenger domain (residues 33–223), C-terminal TEV-6His (domain or fragment)
chain: VSNMNLDISNMGEAREGLRKDIAEVSKLLCMLEKSTASSKNLTMRLQQSDTRENEQSNHIRLLITEIESINKENDCLRQKNNQLKIKLHQLKVKLEQALARNTDLQQILPKSQAEMDNLRKQNEQLKIQLQQLQVKLQDLMSLQNKCSNLALINSVKLNYIRDIKYIALANIVIVKALASTFTEKLSKSNR
notes: source: SoluBL21 E. coli, purified (Ni-NTA, MonoQ, Superdex 200)
B1: the binding entry in experiment [2] and in experiment [3] was “no binding” throughout.
